The assay has as its target GST–UbV^CDH1. Description: pull-down; GST–UbV^CDH1 or GST–Ub with CDH1 or CDC20, GST pulldown, Coomassie-stained SDS–PAGE; n = 3; both purified.

Results are given in words; binding and its absence hold for the method and conditions named. Some results given as binding are weak or reduced against the parent protein; the word gives no strength.

Consider CDH1 (from UniProt Q9UM11 1-496), for which the binding entry is “binds”.

(Values after PMC10643132.)
